In US20050123536A1, “Treatment of immunological disorders using anti-dc30 antibodies” (priority 2001, published 2005):
Some of these results come from one statement about several compounds together.

System: Jurkat T cells
Assay: Jurkat T cell proliferation, 3H-TdR incorporation, anti-CD30 mAbs with or without secondary cross-linking Ab
Type: cell-based, human
Conditions: secondary cross-linking GAM antibody (FIG. 3)
Procedure: FIG. 2. […] Proliferation was assessed by a pulse of tritiated thymidine (^3H-TdR) during the last 4 hours of a 72 hour incubation.
FIG. 3. […] Proliferation was assessed by a pulse of ^3H-TdR during the last 4 hours of a 48-hour incubation.
The effect of signaling through CD30 by anti-CD30 on the proliferation of Jurkat T cells was assessed by tritiated thymidine (^3H-TdR) incorporation assays. Jurkat cells were treated with soluble anti-CD30 in graded doses or anti-CD30 cross-linked by a secondary cross-linking antibody (Ab). […] Final ratios of 1:2.5, 1:5, and 1:10 between the primary mAbs and secondary cross-linking antibodies were used. Antibody cocktails were allowed to incubate at room temperature for 15 minutes. Serial dilutions of these antibody cocktails in culture medium were then prepared to achieve the desired final concentrations. One hundred ill of antibody cocktails were then mixed with 100 μl Jurkat cell suspension containing 5000 cells in 96-well tissue culture (TC) plates. Cells were incubated with the antibody cocktails for 44 hours before a 4-hour pulse with 1 μCi of ^3H-TdR. Cells were then harvested onto filters, and incorporated tritiated thymidine was measured by scintillation counting. Thymidine incorporation values obtained from the treated cells were then compared to the untreated control cultures.

B1: HeFi-1: murine anti-CD30 mAb; variable regions SEQ ID NO:18 and 26 (antibody, listed as Mus musculus, V domains shown)
VH: EVKLVESGGGLVQPGGSLRLSCATSGFTFSDYYMNWVRQPPGKALEWLGFIRNKANGYTTEFSASVMGRFTISRDDSQSILYLQMNTLRAEDSATYYCARDPPYGNPHYYAMDYWGQGTSVTVSS
VL: DIVLTQSPASLAVSLGQRATISCRASKSVSASGYNYMHWYQQKAGQPPKLLIHLASNLESGVPARFSGSGSGTDFTLNIHPVEEEDASTYYCQHSGELPFTFGSGTKLEIK
- concentration at which maximal level of inhibition was observed: greater than 0.1 μg/ml
- primary antibody concentration at which detectable inhibition of proliferation was observed: more than 0.001 μg/ml
